The source of these data is EP3581587A1 (Shanghai Benemae Pharmaceutical Corporation, dated 2019).

Sequences of proteins named here, by UniProt entry; tags and fusion partners are left off. A change or cut given only in a name is not applied to a line headed by its entry.
UniProt P03951: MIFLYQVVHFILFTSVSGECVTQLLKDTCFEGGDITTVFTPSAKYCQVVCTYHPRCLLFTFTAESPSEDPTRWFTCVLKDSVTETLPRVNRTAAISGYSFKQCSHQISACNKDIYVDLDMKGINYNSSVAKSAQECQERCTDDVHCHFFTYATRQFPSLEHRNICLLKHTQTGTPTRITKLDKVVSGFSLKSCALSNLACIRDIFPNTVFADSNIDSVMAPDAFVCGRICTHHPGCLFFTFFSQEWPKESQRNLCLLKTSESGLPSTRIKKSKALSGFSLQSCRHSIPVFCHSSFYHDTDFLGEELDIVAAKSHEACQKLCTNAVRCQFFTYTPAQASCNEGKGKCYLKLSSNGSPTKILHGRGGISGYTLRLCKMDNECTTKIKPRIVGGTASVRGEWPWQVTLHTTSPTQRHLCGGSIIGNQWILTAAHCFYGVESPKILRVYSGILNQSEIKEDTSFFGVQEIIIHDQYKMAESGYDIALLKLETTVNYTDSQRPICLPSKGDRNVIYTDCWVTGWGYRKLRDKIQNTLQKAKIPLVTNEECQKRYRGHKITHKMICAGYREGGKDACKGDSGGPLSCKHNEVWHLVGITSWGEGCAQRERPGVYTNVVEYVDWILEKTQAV

Results are given in words; binding and its absence hold for the method and conditions named. A result given as binding can be weak or reduced; the word gives no strength.

First the molecules themselves.
B1: h-19F6 (antibody, human IgG4, V domains shown)
VH: EVQLVESGGGLVQPGRSLRLSCTASGFTFSKYAMSWVRQAPGKGLEWVSAINYDGSTTYYADSVKGRFTLSRDNSKNTLYLQMNSLRAEDTAVYYCARHPFNNFGIWFAYWGQGTLVTVS
VL: QFQLTQPSSVSASVGDRVTITCERSSGDIGDSYVSWYQQKPGQPPKNVIYADDQRPSGVPDRFSGSIDGSGNSASLTISSLQAEDAADYFCQSYDSNIDFNPVFGGGTKLEVK
B2: h-34F8 (antibody, human IgG4, V domains shown)
VH: QVQLQESGPGLVKPSETLSLTCTVSGFSLTTYHVHWVRQPPGKGLEWIGIMWRDGDTYYNSSLKSRVTISRDTSKNQVSLKLSSVTAADTAVYFCARGGTLTTPFTYWGQGTLVTVSS
VL: DVVLTQTPLSLPVTPGEPASISCRSSQSLESRDGNTYLEWYLQKPGQSPQVLLYGVSNRLSGVPDRFSGSGSGTDFTLKISRVEAEDVGVYYCFQATHGPFTFGQGTKLEIKR
B3: h-42A5 (antibody, human IgG4, V domains shown)
VH: QVTLKESGPVLVKPTETLTLTCTVSGFSLTSYHLHWIRQPPGKALEWMGLMWRDGDTSYNSRLKSRLTISRDTSKSQVVLTMTNMDPVDTATYYCARGMTLATPFLYWGQGTLVTVSS
VL: DVVLTQTPLSLSVTPGQPASISCRSSQSLESSDGNTYLEWYLQKPGQSPQLLIYGVSNRFSGVPDRFSGSGSGTDFTLKISRVEAEDLGVYYCFQATRDPFTFGQGTKLEIKR

The target of the experiment is human activated coagulation factor XI (FXIa) (human) (UniProt P03951). The experiment in a line: SPR, captured antibody, FXIa in flow. (In general: Surface plasmon resonance follows binding to a sensor surface in real time, without labels.)
Take B1: the binding result is “binds”.

For B2, the binding entry was “binds”.

For the molecule B3, the binding result is listed as “binds”.
